These are yes or no findings as the source states them, for the method shown.
Molecular target: ER-resident protein 46 (ERp46), wild type (human) (UniProt Q8NBS9)
Assay: high-speed atomic force microscopy

Sequences of proteins named here, by UniProt entry; tags and fusion partners are left off. Residues count along the entry.
UniProt Q8NBS9, residues 33-432: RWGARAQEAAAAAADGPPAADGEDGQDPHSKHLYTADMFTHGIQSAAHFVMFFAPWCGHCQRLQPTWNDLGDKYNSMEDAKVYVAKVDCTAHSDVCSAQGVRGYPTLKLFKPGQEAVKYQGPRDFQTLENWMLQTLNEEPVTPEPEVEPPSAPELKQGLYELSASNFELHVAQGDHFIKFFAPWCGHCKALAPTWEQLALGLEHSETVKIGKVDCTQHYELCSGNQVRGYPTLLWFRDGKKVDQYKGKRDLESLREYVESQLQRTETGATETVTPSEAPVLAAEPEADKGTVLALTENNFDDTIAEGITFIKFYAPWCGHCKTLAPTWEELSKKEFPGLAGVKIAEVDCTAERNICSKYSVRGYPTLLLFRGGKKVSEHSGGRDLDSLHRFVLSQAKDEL

binding: no binding (tested: 1 nM)
Substance: ER-resident protein 46 (ERp46), wild type (from UniProt Q8NBS9 33-432) (enzyme)

From publication doi:10.1101/2021.01.04.425348
